The values below come from PMC5868998.

The target of test [1] is T1, Recombinant Drosophila Pacman (Pcm) protein (residues 1-1141) with C-terminal FLAG tag (Drosophila) (UniProt Q9VWI1).
T1 sequence: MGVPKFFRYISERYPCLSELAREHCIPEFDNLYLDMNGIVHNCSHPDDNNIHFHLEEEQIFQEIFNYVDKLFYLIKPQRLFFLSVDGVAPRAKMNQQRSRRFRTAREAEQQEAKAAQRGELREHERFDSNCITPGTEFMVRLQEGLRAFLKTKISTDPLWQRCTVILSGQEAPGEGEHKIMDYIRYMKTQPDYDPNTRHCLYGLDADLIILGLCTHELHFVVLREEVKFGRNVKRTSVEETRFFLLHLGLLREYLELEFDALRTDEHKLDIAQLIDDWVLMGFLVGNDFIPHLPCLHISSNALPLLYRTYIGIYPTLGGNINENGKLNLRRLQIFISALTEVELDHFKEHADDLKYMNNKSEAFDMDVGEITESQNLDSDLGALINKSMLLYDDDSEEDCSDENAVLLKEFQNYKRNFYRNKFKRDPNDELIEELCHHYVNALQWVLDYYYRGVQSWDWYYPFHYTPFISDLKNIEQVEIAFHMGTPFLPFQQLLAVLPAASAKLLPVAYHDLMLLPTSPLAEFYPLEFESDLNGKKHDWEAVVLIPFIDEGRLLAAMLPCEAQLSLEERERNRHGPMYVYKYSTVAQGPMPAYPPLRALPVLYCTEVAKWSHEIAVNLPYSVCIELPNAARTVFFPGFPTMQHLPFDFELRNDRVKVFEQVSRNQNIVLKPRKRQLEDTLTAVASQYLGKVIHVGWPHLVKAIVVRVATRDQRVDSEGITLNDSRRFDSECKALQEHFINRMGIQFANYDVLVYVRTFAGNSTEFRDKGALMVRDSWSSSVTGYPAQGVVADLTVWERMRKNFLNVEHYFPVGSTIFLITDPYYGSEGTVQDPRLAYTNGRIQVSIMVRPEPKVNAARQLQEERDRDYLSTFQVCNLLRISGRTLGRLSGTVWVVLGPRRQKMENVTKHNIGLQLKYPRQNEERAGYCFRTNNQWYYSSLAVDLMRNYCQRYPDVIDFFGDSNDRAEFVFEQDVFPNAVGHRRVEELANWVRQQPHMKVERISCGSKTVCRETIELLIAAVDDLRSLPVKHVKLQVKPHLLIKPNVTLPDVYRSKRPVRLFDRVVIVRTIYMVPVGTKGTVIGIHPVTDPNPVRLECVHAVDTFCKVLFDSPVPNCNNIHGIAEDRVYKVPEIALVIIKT
Description: SEC; Sephacryl S-200 HR column (5 mm x 185 mm), 10 mM Tris-HCl pH 8.0, 150 mM NaCl, 0.2 mM EDTA, 1 mM DTT; input 50 µg each of Pcm and Mbf1 in 30 µl; both purified. On the technique in general: SEC sorts molecules by how far they enter the pores of the column.

The target in test [2] is T1, Recombinant Drosophila Pacman (Pcm) protein (residues 1-1141) with C-terminal FLAG tag (Drosophila). Description: co-IP; purified Pcm (5 µg) and Mbf1 (5 µg) mixed in 200 µl TBST, added to anti-FLAG M2, anti-Mbf1 or normal rabbit IgG on Dynabeads Protein G; 3 h at room temperature; western blot of eluates; both purified. A general note: A western blot detects proteins with antibodies after separation by electrophoresis.

Test [3] has as its target Multiprotein bridging factor 1 (Mbf1), recombinant Drosophila (Drosophila). The description is as above.

These are yes or no findings as the source states them, for the method shown. For part of these data: In cells and extracts the contact can be indirect. Sequences can lack the tags named with a protein.

“Multiprotein bridging factor 1 (Mbf1), recombinant Drosophila”: the binding entry in test [1] is “no binding (tested: 50 µg each of Pcm and Mbf1 in 30 µl)”; in test [2] it was “no binding (tested: 5 µg each in 200 µl TBST)”.

B1: Recombinant Drosophila Pacman (Pcm) protein (residues 1-1141) with C-terminal FLAG tag (domain or fragment, UniProt Q9VWI1 1-1141)
chain: MGVPKFFRYISERYPCLSELAREHCIPEFDNLYLDMNGIVHNCSHPDDNNIHFHLEEEQIFQEIFNYVDKLFYLIKPQRLFFLSVDGVAPRAKMNQQRSRRFRTAREAEQQEAKAAQRGELREHERFDSNCITPGTEFMVRLQEGLRAFLKTKISTDPLWQRCTVILSGQEAPGEGEHKIMDYIRYMKTQPDYDPNTRHCLYGLDADLIILGLCTHELHFVVLREEVKFGRNVKRTSVEETRFFLLHLGLLREYLELEFDALRTDEHKLDIAQLIDDWVLMGFLVGNDFIPHLPCLHISSNALPLLYRTYIGIYPTLGGNINENGKLNLRRLQIFISALTEVELDHFKEHADDLKYMNNKSEAFDMDVGEITESQNLDSDLGALINKSMLLYDDDSEEDCSDENAVLLKEFQNYKRNFYRNKFKRDPNDELIEELCHHYVNALQWVLDYYYRGVQSWDWYYPFHYTPFISDLKNIEQVEIAFHMGTPFLPFQQLLAVLPAASAKLLPVAYHDLMLLPTSPLAEFYPLEFESDLNGKKHDWEAVVLIPFIDEGRLLAAMLPCEAQLSLEERERNRHGPMYVYKYSTVAQGPMPAYPPLRALPVLYCTEVAKWSHEIAVNLPYSVCIELPNAARTVFFPGFPTMQHLPFDFELRNDRVKVFEQVSRNQNIVLKPRKRQLEDTLTAVASQYLGKVIHVGWPHLVKAIVVRVATRDQRVDSEGITLNDSRRFDSECKALQEHFINRMGIQFANYDVLVYVRTFAGNSTEFRDKGALMVRDSWSSSVTGYPAQGVVADLTVWERMRKNFLNVEHYFPVGSTIFLITDPYYGSEGTVQDPRLAYTNGRIQVSIMVRPEPKVNAARQLQEERDRDYLSTFQVCNLLRISGRTLGRLSGTVWVVLGPRRQKMENVTKHNIGLQLKYPRQNEERAGYCFRTNNQWYYSSLAVDLMRNYCQRYPDVIDFFGDSNDRAEFVFEQDVFPNAVGHRRVEELANWVRQQPHMKVERISCGSKTVCRETIELLIAAVDDLRSLPVKHVKLQVKPHLLIKPNVTLPDVYRSKRPVRLFDRVVIVRTIYMVPVGTKGTVIGIHPVTDPNPVRLECVHAVDTFCKVLFDSPVPNCNNIHGIAEDRVYKVPEIALVIIKT
On to B1, for which, in test [3], the binding entry is reported as “no binding (tested: 5 µg each in 200 µl TBST)”.
